Data as given in PubChem BioAssay AID1159596 (NIAID, 2016).

Aim: 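Genes whose silencing alters the TNF reporter response of macrophage-like cells to peptidoglycan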 (primary screen)
Cell system: human THP1 B5 monocytic reporter cells made macrophage-like with PMA
Reagent: single siRNA against human genes
Duration: assayed 48 to 72 hours after siRNA transfection; peptidoglycan stimulation lasted 4 hours
Challenge: Staphylococcus aureus peptidoglycan for 4 hours; dose not given
Measurement: 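Mean over replicate screens of a robust z per siRNA from the dual luciferase TNF promoter reporter after 4 h peptidoglycan, median/MAD normalised, relative to negative controls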
Scale: TNF reporter z-score: higher = stronger TNF promoter reporter response to peptidoglycan
Hit rule: In these data the active calls have TNF reporter z-score, replicate mean at about -1.5 or lower, or at about 1.5 or higher
Calls: active = reporter shifted beyond cut (either direction); inactive = reporter near control level
Here is one part, drawn at random, of 756 reagents tested. 143 of them (19%) count as active. 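Active means the reporter moved past about ±1.5 in either direction; scores are per single siRNA, not per gene; peptidoglycan dose not given.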 The numbers tell different reagents against one gene apart. Reagent sequences are not shown. Not stated in the record: the amount of reagent.

gene symbol	siRNA no.	TNF reporter z-score, replicate mean	call
REL	1	0.256	inactive
REL	2	-0.494	inactive
REL	3	-0.174	inactive
REL	4	-0.526	inactive
REL	5	-0.45	inactive
REL	6	-0.336	inactive
IRF9	1	0.264	inactive
IRF9	2	-0.668	inactive
IRF9	3	-0.797	inactive
IRF9	4	-2.61	active
IRF9	5	0.205	inactive
IRF9	6	-0.25	inactive
IRF3	1	-0.509	inactive
IRF3	2	-0.853	inactive
IRF3	3	-1.21	inactive
IRF3	4	0.387	inactive
IRF3	5	-0.245	inactive
IRF3	6	-1.21	inactive
MAP3K7	1	-2.18	active
MAP3K7	2	-3.07	active
MAP3K7	3	-4.16	active
MAP3K7	4	-2.27	active
MAP3K7	5	-3.65	active
MAP3K7	6	-3.08	active
MAPK8	1	0.106	inactive
MAPK8	2	-0.479	inactive
MAPK8	3	0.409	inactive
MAPK8	4	0.211	inactive
MAPK8	5	0.0679	inactive
MAPK8	6	-0.2	inactive
TLR8	1	-0.204	inactive
TLR8	2	1.48	inactive
TLR8	3	-0.237	inactive
TLR8	4	-1.76	active
TLR8	5	0.026	inactive
TLR8	6	0.134	inactive
IL12B	1	-1.22	inactive
IL12B	2	-0.875	inactive
IL12B	3	-0.742	inactive
IL12B	4	-1.15	inactive
IL12B	5	-1.37	inactive
IL12B	6	-0.799	inactive
NFKB2	1	-0.19	inactive
NFKB2	2	-0.985	inactive
NFKB2	3	2.16	active
NFKB2	4	0.148	inactive
NFKB2	5	-4.7	active
NFKB2	6	0.206	inactive
TLR1	1	-0.0795	inactive
TLR1	2	-1.19	inactive
TLR1	3	-1.42	inactive
TLR1	4	0.807	inactive
TLR1	5	-0.429	inactive
TLR1	6	-0.311	inactive
IFNAR2	1	-1.18	inactive
IFNAR2	2	-0.863	inactive
IFNAR2	3	-1.73	active
IFNAR2	4	-1	inactive
IFNAR2	5	1.32	inactive
IFNAR2	6	-0.738	inactive
IRAK3	1	-0.34	inactive
IRAK3	2	-0.613	inactive
IRAK3	3	-0.406	inactive
IRAK3	4	-0.568	inactive
IRAK3	5	-0.51	inactive
IRAK3	6	-0.336	inactive
RAC1	1	0.0108	inactive
RAC1	2	-0.765	inactive
RAC1	3	0.14	inactive
RAC1	4	-0.0718	inactive
RAC1	5	0.12	inactive
RAC1	6	-2.72	active
RELB	1	0.952	inactive
RELB	2	1.04	inactive
RELB	3	1.1	inactive
RELB	4	-0.341	inactive
RELB	5	0.423	inactive
RELB	6	0.54	inactive
CYLD	1	-1.61	active
CYLD	2	-2.58	active
CYLD	3	-0.665	inactive
CYLD	4	-0.564	inactive
CYLD	5	-1.31	inactive
CYLD	6	-1.69	active
PIK3R5	1	0.0689	inactive
PIK3R5	2	-1.32	inactive
PIK3R5	3	-0.657	inactive
PIK3R5	4	-0.33	inactive
PIK3R5	5	-0.992	inactive
PIK3R5	6	-1.12	inactive
PIK3CB	1	-2.22	active
PIK3CB	2	-0.795	inactive
PIK3CB	3	-0.726	inactive
PIK3CB	4	-0.51	inactive
PIK3CB	5	0.374	inactive
PIK3CB	6	-0.0554	inactive
MAPK1	1	-0.134	inactive
MAPK1	2	0.135	inactive
MAPK1	3	-0.172	inactive
MAPK1	4	0.525	inactive
MAPK1	5	-0.975	inactive
MAPK1	6	0.0133	inactive
TANK	1	-0.163	inactive
TANK	2	1	inactive
TANK	3	-0.379	inactive
TANK	4	0.717	inactive
TANK	5	-1.9	active
TANK	6	-0.277	inactive
MAP2K6	1	-0.59	inactive
MAP2K6	2	0.138	inactive
MAP2K6	3	0.258	inactive
MAP2K6	4	-0.00803	inactive
MAP2K6	5	0.284	inactive
MAP2K6	6	0.505	inactive

Looked up above.
Entry of MAP3K7 #2 under “TNF reporter z-score, replicate mean”: -3.07
REL #6, call → inactive
TANK #6, call: inactive
For “TNF reporter z-score, replicate mean”, TLR8 #2 reads 1.48
Result for RELB #2 in “call”: inactive
MAP3K7 #5, TNF reporter z-score, replicate mean = -3.65
